The list does not hold the whole screen: it is rich in T/C values a quarter to a half above the control, in often repeated tests (any T/C) and in doses without a T/C. Further doses and runs are listed elsewhere. T/C is the treated group as % of the vehicle group. Some doses have a count of surviving animals in place of a T/C: the source files T/C as zero there, which appears to mark a toxic dose or a test without result, not a measured value. Some survivor counts are full or nearly so, which does not show that the dose was tolerated: the source hardly ever lists a survival T/C far under the control, and the zero likely stands for such cases as well. Survivors were counted at the toxicity check, usually on the fifth day, unless a day is given; later deaths do not show. Schedules are NCI's codes, taken here to give the interval after Q, in days (D) or hours (H), and the number of doses after X. Signs of the kind (2×) say how often a value occurs here. Some entries hold several experiments; their values stand side by side, smallest first. Where survival is the endpoint, the PubChem record calls one and a half times the control and up active, and a quarter to a half above the control has no call in these data; cut-offs in other NCI protocols can differ. Some schedules carry Z or #; the key to these is not given.
Tested on: P388 leukemia ip, CD2F1 mice, survival T/C
Assay: NCI In Vivo Anticancer Drug Screen. Data for tumor model P388 Leukemia (intraperitoneal) in CD2F1 (CDF1) mice
Conditions: T/C endpoint: median survival time, higher T/C = longer survival
[1] = dose: 0.2 mg/kg/injection, schedule: Q01DX009 (ip), vehicle: distilled water + Tween-80
[2] = dose: 0.4 mg/kg/injection, schedule: Q01DX009 (ip), vehicle: water

**Q.** How did the T/C (dose: 0.1 mg/kg/injection, schedule: Q01DX009 (ip), vehicle: other, evaluated on day 30) turn out when COC1=C(N)C(=O)c2nc(-c3nc(C(=O)O)c(C)c(-c4ccc(OC)c(OC)c4O)c3N)ccc2C1=O was run?
**A.** The T/C was 100, 105, 117, 123, 129, 137 % of control.

**Q.** And the T/C (dose: 0.1 mg/kg/injection, schedule: Q01DX009 (ip), vehicle: other, evaluated on day 35)?
**A.** The T/C was 130 % of control.

**Q.** What about the T/C (dose: 0.1 mg/kg/injection, schedule: Q01DX009 (ip), vehicle: other, evaluated on day 45) of the same molecule?
**A.** Its T/C is 131 % of control.

**Q.** What about the survivor count (dose: 0.1 mg/kg/injection, schedule: Q01DX009 (ip), vehicle: other) of the same molecule?
**A.** Its survivor count is 6 of 6.

**Q.** And the T/C (dose: 0.1 mg/kg/injection, schedule: Q01DX009 (ip), vehicle: water)?
**A.** Its T/C is 112, 123, 132, 135, 139, 140 (2×), 141, 143 % of control.

**Q.** And the T/C (dose: 0.1 mg/kg/injection, schedule: Q## X024 (ip), vehicle: other)?
**A.** Its T/C is 130 % of control.

**Q.** And the T/C (dose: 0.12 mg/kg/injection, schedule: Q01DX009 (ip), vehicle: dioxane)?
**A.** The T/C was 130 % of control.

**Q.** What about the T/C (dose: 0.12 mg/kg/injection, schedule: Q01DX009 (ip), vehicle: saline with Tween-80) of the same molecule?
**A.** Its T/C is 140 % of control.

**Q.** What about the T/C (dose: 0.16 mg/kg/injection, schedule: Q01DX009 (ip), vehicle: distilled water + Tween-80) of the same molecule?
**A.** Its T/C is 133 % of control.

**Q.** What about the T/C (dose: 0.18 mg/kg/injection, schedule: Q01DX009 (ip), vehicle: dioxane) of the same molecule?
**A.** The T/C was 126 % of control.

**Q.** And the T/C (dose: 0.18 mg/kg/injection, schedule: Q01DX009 (ip), vehicle: saline with Tween-80)?
**A.** The T/C was 125 % of control.

**Q.** What about the T/C [1] of the same molecule?
**A.** Its T/C is 96, 100, 101, 108 % of control.

**Q.** What about the survivor count [1] of the same molecule?
**A.** Its survivor count is 6 of 6.

**Q.** And the T/C (dose: 0.2 mg/kg/injection, schedule: Q01DX009 (ip), vehicle: other, evaluated on day 5)?
**A.** The T/C was 84 % of control.

**Q.** And the T/C (dose: 0.2 mg/kg/injection, schedule: Q01DX009 (ip), vehicle: other, evaluated on day 30)?
**A.** Its T/C is 90, 106, 110, 123 % of control.

**Q.** And the T/C (dose: 0.2 mg/kg/injection, schedule: Q01DX009 (ip), vehicle: other, evaluated on day 35)?
**A.** Its T/C is 130 % of control.

**Q.** And the T/C (dose: 0.2 mg/kg/injection, schedule: Q01DX009 (ip), vehicle: other, evaluated on day 45)?
**A.** Its T/C is 115 % of control.

**Q.** What about the survivor count (dose: 0.2 mg/kg/injection, schedule: Q01DX009 (ip), vehicle: other) of the same molecule?
**A.** Its survivor count is 6 of 6 and 8 of 8.

**Q.** And the T/C (dose: 0.2 mg/kg/injection, schedule: Q01DX009 (ip), vehicle: water)?
**A.** The T/C was 86, 94, 104, 123, 127, 137 (2×), 138, 149 % of control.

**Q.** What about the T/C (dose: 0.4 mg/kg/injection, schedule: Q01DX001 (ip), vehicle: other) of the same molecule?
**A.** Its T/C is 130 % of control.

**Q.** What about the survivor count (dose: 0.4 mg/kg/injection, schedule: Q01DX009 (ip), vehicle: distilled water + Tween-80) of the same molecule?
**A.** The survivor count was 6 of 6 (2×).

**Q.** And the T/C (dose: 0.4 mg/kg/injection, schedule: Q01DX009 (ip), vehicle: other, evaluated on day 5)?
**A.** Its T/C is 60 % of control.

**Q.** What about the T/C (dose: 0.4 mg/kg/injection, schedule: Q01DX009 (ip), vehicle: other, evaluated on day 30) of the same molecule?
**A.** Its T/C is 87 and 92 % of control.

**Q.** What about the survivor count (dose: 0.4 mg/kg/injection, schedule: Q01DX009 (ip), vehicle: other) of the same molecule?
**A.** Its survivor count is 3 of 6, 6 of 6 (2×), 8 of 8.

**Q.** What about the T/C [2] of the same molecule?
**A.** The T/C was 95, 100, 119, 122, 132 % of control.

**Q.** What about the survivor count [2] of the same molecule?
**A.** The survivor count was 5 of 6, 3 of 3, 6 of 6 (2×).

**Q.** And the survivor count (dose: 0.63 mg/kg/injection, schedule: Q01DX009 (ip), vehicle: distilled water + Tween-80)?
**A.** Its survivor count is 4 of 6 and 6 of 6.

**Q.** What about the survivor count (dose: 1.25 mg/kg/injection, schedule: Q01DX009 (ip), vehicle: distilled water + Tween-80) of the same molecule?
**A.** The survivor count was 1 of 6 and 2 of 6.

**Q.** And the T/C (dose: 1.25 mg/kg/injection, schedule: Q01DX009 (ip), vehicle: saline with Tween-80)?
**A.** The T/C was 145 % of control.

**Q.** And the survivor count (dose: 2.5 mg/kg/injection, schedule: Q01DX009 (ip), vehicle: distilled water + Tween-80)?
**A.** The survivor count was 0 of 6.

**Q.** And the survivor count (dose: 5.0 mg/kg/injection, schedule: Q01DX009 (ip), vehicle: distilled water + Tween-80)?
**A.** Its survivor count is 0 of 6.

**Q.** And the survivor count (dose: 5.0 mg/kg/injection, schedule: Q01DX009 (ip), vehicle: saline with Tween-80)?
**A.** The survivor count was 6 of 6.

**Q.** And the survivor count (dose: 6.4 mg/kg/injection, schedule: Q01DX001 (oral), vehicle: other)?
**A.** The survivor count was 8 of 10.

**Q.** And the survivor count (dose: 10.0 mg/kg/injection, schedule: Q01DX009 (ip), vehicle: distilled water + Tween-80)?
**A.** Its survivor count is 0 of 6.

**Q.** And the T/C (dose: 100.0 mg/kg/injection, schedule: Q01DX009 (ip), vehicle: distilled water + Tween-80)?
**A.** Its T/C is 135 % of control.

**Q.** And the T/C (dose: 50.0 micrograms/kg/injection, schedule: Q01DX009 (ip), vehicle: other)?
**A.** The T/C was 128 % of control.

**Q.** And the T/C (dose: 100.0 micrograms/kg/injection, schedule: Q01DX009 (ip), vehicle: other)?
**A.** Its T/C is 129 % of control.

**Q.** What about the T/C (dose: 200.0 micrograms/kg/injection, schedule: Q01DX009 (ip), vehicle: other) of the same molecule?
**A.** Its T/C is 129 % of control.
